# Values of other authors, collected in US20240382540A1, “MODULATION OF FUSOBACTERIUM VARIUM TO PREVENT BOVINE LIVER ABSCESSES AND IMPROVE CATTLE PERFORMANCE” (priority 2023, published 2024).
# Some results were stated once for a whole list of compounds, not compound by compound.
# System: liver abscesses
# Conditions: feedlot cattle; antibiotic in cattle feed; cited from earlier work
row,Molecule,reduction of occurrence of liver abscesses
1,CC[C@H]1OC(=O)C[C@@H](O)[C@H](C)[C@@H](O[C@@H]2O[C@H](C)[C@@H](O[C@H]3C[C@@](C)(O)[C@@H](O)[C@H](C)O3)[C@H](N(C)C)[C@H]2O)[C@@H](CC=O)C[C@@H](C)C(=O)/C=C/C(C)=C/[C@@H]1CO[C@@H]1O[C@H](C)[C@@H](O)[C@@H](OC)[C@H]1OC [tylosin],40-70%
2,virginiamycin,40-70%
